These are yes or no findings as the source states them, for the method shown. Some entries that bind do so weakly or less than the wild type.
Legend:
VCAM1-Trx (human) [1] = target: T1, VCAM1-Trx (human) (UniProt P19320); experiment: phage ELISA on several coated proteins
T1 sequence (looked up): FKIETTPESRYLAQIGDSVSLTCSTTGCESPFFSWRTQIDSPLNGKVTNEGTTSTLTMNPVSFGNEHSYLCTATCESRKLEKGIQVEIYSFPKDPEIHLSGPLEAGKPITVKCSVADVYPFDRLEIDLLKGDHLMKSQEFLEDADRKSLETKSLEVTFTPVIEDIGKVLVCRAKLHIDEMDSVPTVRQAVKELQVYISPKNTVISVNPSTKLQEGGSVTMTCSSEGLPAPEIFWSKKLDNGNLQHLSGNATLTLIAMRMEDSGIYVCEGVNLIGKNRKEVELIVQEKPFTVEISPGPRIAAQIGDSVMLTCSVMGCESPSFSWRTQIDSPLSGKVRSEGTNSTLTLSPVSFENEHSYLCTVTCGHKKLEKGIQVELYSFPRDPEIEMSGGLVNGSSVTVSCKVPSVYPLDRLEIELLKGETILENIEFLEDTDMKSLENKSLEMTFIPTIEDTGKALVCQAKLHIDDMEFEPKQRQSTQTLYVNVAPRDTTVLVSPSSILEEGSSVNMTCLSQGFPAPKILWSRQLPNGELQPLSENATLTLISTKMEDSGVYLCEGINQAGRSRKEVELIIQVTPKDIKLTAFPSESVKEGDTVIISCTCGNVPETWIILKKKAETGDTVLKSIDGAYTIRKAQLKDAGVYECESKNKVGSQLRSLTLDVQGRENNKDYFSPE

Amino acid sequences for entries named in this document (tags omitted). A change or cut given only in a name is not applied to a line headed by its entry. Chains listed by the source or under a name are the forms on record and can include a tag or linker. Residues count along the entry.
UniProt Q99836: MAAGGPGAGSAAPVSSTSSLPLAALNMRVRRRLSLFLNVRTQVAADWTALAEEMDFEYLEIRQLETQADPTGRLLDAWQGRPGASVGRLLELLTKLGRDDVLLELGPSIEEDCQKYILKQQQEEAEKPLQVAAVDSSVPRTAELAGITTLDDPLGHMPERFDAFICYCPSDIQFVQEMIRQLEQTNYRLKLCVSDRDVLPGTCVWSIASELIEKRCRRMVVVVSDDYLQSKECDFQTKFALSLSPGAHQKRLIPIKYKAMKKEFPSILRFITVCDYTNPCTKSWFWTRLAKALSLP
UniProt P02768, residues 25-609: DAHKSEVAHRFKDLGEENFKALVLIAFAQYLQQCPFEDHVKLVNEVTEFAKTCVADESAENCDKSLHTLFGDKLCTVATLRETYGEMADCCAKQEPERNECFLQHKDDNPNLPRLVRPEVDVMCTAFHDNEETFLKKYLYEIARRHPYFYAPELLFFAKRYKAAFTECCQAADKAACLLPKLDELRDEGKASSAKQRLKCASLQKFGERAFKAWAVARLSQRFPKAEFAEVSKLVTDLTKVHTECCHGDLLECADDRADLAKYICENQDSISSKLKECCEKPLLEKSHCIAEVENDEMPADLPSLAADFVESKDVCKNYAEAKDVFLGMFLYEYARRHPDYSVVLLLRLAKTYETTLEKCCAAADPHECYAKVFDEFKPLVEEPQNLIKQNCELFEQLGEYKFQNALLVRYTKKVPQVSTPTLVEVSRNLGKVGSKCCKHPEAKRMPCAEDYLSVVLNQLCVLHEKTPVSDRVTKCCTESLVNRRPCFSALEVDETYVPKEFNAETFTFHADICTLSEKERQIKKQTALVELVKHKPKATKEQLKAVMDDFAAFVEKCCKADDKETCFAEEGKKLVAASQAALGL
VEGF121 (P15692, form named): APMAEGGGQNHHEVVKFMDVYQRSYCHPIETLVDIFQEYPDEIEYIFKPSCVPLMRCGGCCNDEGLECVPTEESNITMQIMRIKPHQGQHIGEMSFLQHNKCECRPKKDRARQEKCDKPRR

VCAM1-Trx (human) [2] = target: T1, VCAM1-Trx (human); experiment: phage ELISA, clones with higher absorbance than on BSA, sequenced
VCAM1-Trx (human) [3] = target: T1, VCAM1-Trx (human); experiment: phage ELISA (anti-M13-HRP, absorbance at 450 nm), proteins coated at 5 µg/ml
Human MyD88 (human) [4] = target: Human MyD88 (human) (UniProt Q99836); experiment: phage ELISA on several coated proteins
Human MyD88 (human) [5] = target: Human MyD88 (human) (UniProt Q99836); experiment: phage ELISA, clones with higher absorbance than on BSA, sequenced
Human MyD88 (human) [6] = target: Human MyD88 (human) (UniProt Q99836); experiment: phage ELISA (anti-M13-HRP, absorbance at 450 nm), proteins coated at 5 µg/ml
[7] = target: Human serum albumin (human) (UniProt P02768); experiment: phage ELISA, clones with higher absorbance than on BSA, sequenced
VEGF121 (human) = VEGF121 (human) (UniProt P15692); experiment: as above

Binder: QARDCTGSWTWENGKWTWKGPSICPI [Peptide 1 specific to VCAM1 (Table 3c)]
- binding (VCAM1-Trx (human) [1]): binds
- binding (VCAM1-Trx (human) [2]): binds
- binding (VCAM1-Trx (human) [3]): binds

Binder: HSHAFYGSWTWENGKWTWKGNPGWWT [Peptide 1 specific to MyD88 (Table 3f)]
- binding (Human MyD88 (human) [4]): binds
- binding (Human MyD88 (human) [5]): binds
- binding (Human MyD88 (human) [6]): binds

Binder: YGAYPWGSWTWENGKWTWKGWRVSRD [Peptide 4 specific to VEGF (Table 3b)]
- binding [7]: binds
- binding (VEGF121 (human)): binds

Binder: ASTINFGSWTWENGKWTWKGYTRRWN [Peptide 2 specific to MyD88 (Table 3f)]
- binding (Human MyD88 (human) [5]): binds
